Test results from patent publication US20230235054A1 (BIOATLA, published 2023).
No constants are given. Whether binding was seen depends on the method and setting. Some binding calls cover weakened binding; strength is not graded here.

What was measured:
[1] = target: cynoNectin4 antigen (cynomolgus (cyno)); test: ELISA, coated cyno Nectin-4, pH 6.0, ADC titrated
[2] = target: T1, human Nectin-4 on cells (human, UniProt Q96NY8 32-510); test: FACS, T47D cells (human Nectin-4), pH 6.0
T1 sequence (looked up): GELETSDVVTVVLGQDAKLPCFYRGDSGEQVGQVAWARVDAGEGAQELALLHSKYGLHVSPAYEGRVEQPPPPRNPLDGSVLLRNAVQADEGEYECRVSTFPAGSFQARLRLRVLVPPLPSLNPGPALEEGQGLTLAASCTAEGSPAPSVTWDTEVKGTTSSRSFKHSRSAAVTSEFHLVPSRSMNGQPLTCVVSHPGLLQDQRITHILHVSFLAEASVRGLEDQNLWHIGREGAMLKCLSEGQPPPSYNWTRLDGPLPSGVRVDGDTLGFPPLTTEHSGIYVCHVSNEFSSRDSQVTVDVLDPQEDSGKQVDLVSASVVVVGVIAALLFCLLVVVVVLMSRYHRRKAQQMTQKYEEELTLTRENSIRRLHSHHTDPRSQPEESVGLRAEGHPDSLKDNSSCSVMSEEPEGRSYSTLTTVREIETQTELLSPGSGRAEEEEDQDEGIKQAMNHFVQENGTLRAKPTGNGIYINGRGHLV

[3] = target: T2, recombinant human Nectin4 antigen (human, UniProt Q96NY8 32-349); test: ELISA, coated recombinant human Nectin-4, pH 6.0, ADC titrated
T2 construct: construct not described
T2 sequence (looked up): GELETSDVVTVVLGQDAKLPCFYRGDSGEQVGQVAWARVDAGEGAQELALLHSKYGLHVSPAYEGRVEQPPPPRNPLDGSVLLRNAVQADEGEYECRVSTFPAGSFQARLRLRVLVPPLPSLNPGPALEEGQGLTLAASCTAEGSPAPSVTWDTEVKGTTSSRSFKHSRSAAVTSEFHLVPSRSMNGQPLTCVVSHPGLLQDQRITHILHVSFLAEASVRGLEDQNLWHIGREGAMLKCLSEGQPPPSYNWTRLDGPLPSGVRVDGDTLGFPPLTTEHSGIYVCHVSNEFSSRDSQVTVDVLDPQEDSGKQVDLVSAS

[4] = target: T1, human Nectin-4 on cells; test: FACS, T47D cells
[5] = target: cyno Nectin-4 on cells (cyno); test: FACS, HEK293 cells expressing cyno Nectin-4, pH 7.4
[6] = target: cyno Nectin-4 on cells (cyno); test: FACS, HEK293 cells expressing cyno Nectin-4
[7] = target: T2, recombinant human Nectin4 antigen; test: ELISA, coated recombinant human Nectin-4, pH 7.4, ADC titrated
[8] = target: T1, human Nectin-4 on cells; test: FACS, T47D cells (human Nectin-4), pH 7.4
[9] = target: T2, recombinant human Nectin4 antigen; test: pH range ELISA (pH 5.5-7.4), coated recombinant human Nectin-4, ADC at 30 ng/mL
[10] = target: T1, human Nectin-4 on cells; test: FACS, HEK293 cells expressing human Nectin-4, pH 6.0
[11] = target: T1, human Nectin-4 on cells; test: FACS, HEK293 cells expressing human Nectin-4, pH 7.4
[12] = target: cyno Nectin-4 on cells (cyno); test: FACS, HEK293 cells expressing cyno Nectin-4, pH 6.0
[13] = target: T1, human Nectin-4 on cells; test: FACS, HEK293 cells expressing human Nectin-4
[14] = target: cynoNectin4 antigen (cynomolgus (cyno)); test: ELISA, coated cyno Nectin-4, pH 7.4, ADC titrated

Measured: binding

B1: BAP-143-06-24-16 (antibody, V domains shown)
VH: EVQLVQSGAEVKKPGATVKISCKVSGFTFSSYNMNWIRQSPSRGLEWLGYISSSSSTIYYADSVKGRFTISRDNSKNTLYLQMNSLRAEDTAVYYCARAYYYGDDVWGQGTLVTVSS
VL: DIQMTQSPSSVSASVGDRVTITCHASQGISGWLAWYQQKPGKAPKFLIYAASTLQSGVPSRFSGSGSGTDFTLTISSLQPEDFATYYCQQANSFPPTFGGGTKVEIK
notes: Used as a conjugate with a linker payload (CAB ADC)
binds: all assays above

B2: BAP-143-06-33-16 (antibody, V domains shown)
VH: EVQLVQSGAEVKKPGATVKISCKVSGFTFSSYNMNWIRQSPSRGLEWLGYISSSSSTIYYADSVKGRFTISRDNSKNTLYLQMNSLRAEDTAVYYCARAYYYGDDVWGQGTLVTVSS
VL: DIQMTQSPSSVSASVGDRVTITCRASQGISGWEAWYQQKPGKAPKFLIYAASTLQSGVPSRFSGSGSGTDFTLTISSLQPEDFATYYCQQANSFPPTFGGGTKVEIK
notes: as for B1
not listed: [3] | [7] | [9]
binds: all other assays above

B3: BAP-143-07-03-12 (antibody, V domains shown)
VH: EVQLVESGGGLVQPGGSLRLSCAASGFTFSSYNMNWVRQAPGKGLEWVSYISSSSSTIYYADSVKGRFTISRDNAKNSLSLQMNSLRDEDTAVYYCARAYYYGMDKWGQGTTVTVSS
VL: DIQMTQSPSSVSASVGDRVTITCRASQGISGWEAWYQQKPGKAPKFLIYAASTLQSGVPSRFSGSGSGTDFTLTISSLQPEDFATYYCQQANSFPPTFGGGTKVEIK
notes: as for B1
not listed: [3] | [7] | [9]
binds: all other assays above

B4: BAP-143-06-33-03 (antibody, V domains shown)
VH: QVQLVQSGAEVKKPGASVKVSCKASGFTFSSYNMNWVRQARGQRLEWIGYISSSSSTIYYADSVKGRFTISRDNSKNTLYLQMNSLRAEDTAVYYCARAYYYGMDKWGQGTLVTVSS
VL: DIQMTQSPSSVSASVGDRVTITCRASQGISGWLAWYQQKPGKAPKFLIYAASTLQSGVPSRFSGSGSGTDFTLTISSLQPEDFATYYCQQANSEPPTFGGGTKVEIK
notes: as for B1
not listed: [3] | [7] | [9]
binds: all other assays above
